Source: article PMC10931566
These are yes or no findings as the source states them, for the method shown. In cells and extracts the contact can be indirect.

Protein sequences, listed by entry. Tags and fused reporters are not part of them.
UniProt Q92847: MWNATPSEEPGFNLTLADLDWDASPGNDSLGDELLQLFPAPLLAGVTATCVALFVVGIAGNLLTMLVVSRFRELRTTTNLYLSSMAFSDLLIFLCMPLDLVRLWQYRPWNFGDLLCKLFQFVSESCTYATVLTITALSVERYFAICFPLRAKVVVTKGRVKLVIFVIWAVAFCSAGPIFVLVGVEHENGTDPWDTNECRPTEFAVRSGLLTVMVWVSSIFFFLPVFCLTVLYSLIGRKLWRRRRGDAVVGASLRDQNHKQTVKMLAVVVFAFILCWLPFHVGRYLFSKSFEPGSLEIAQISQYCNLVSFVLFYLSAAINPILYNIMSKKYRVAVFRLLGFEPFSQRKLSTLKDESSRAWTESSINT

Target: NMDA receptor (NMDAR) formed by NR1A fused to Renilla luciferase (NR1A-Rluc) plus NR2B (human) (UniProt Q05586+Q13224)
Experiment: FRET or BRET; BRET saturation in living HEK-293T cells: constant cDNA for NR1A-Rluc and NR2B, increasing cDNA for CB1R-YFP or GHSR1a-YFP; 5 µM coelenterazine H, HBSS pH 7.4 with 0.1% glucose; cells treated or not with 10 µg/L human α-syn fibrils for 48 h

“ghrelin receptor GHSR1a fused to the yellow fluorescent protein (GHSR1a-YFP) (from UniProt Q92847 1-366)” was tested. Which binding did it give?
Its binding is “no binding”.
